# PubChem BioAssay AID686938, Drosophila RNAi Screening Center, 2013
# Test: 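Fly genes required for calcium entry once internal stores are emptied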 (primary screen)
# Cell system: Drosophila S2R+ cells
# Reagent: long dsRNA against Drosophila genes, about 0.25 µg dsRNA per well, roughly 10,000 cells
# Time to read-out: 5 days of knock-down before the calcium assay
# Conditions: thapsigargin (SERCA pump blocker) to empty calcium stores; entry signal taken 4 min after adding it
# Read-out: 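Per-well fluo-4 fluorescence in two replicates, unnormalised, measured in resting cells and 4 min after store depletion by the SERCA blocker thapsigargin; ratio of the two present in few wells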
# Direction: calcium entry signal: higher = stronger calcium signal after store depletion; resting calcium signal: higher = higher resting calcium signal
# Rule for the call: 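Called when the plate z-score of the entry-to-rest ratio, mean of duplicates, falls below −3; wells with low overall dye signal (Fmax z below −2) or more than five off-targets excluded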
# Meaning of the calls: active = strongly reduced calcium entry; inactive = no strong reduction
# The screen tested about 23,000 reagents; this is an unselected part of those that have a named target and a result. In the full data, 75 (0.33%) got an active call. 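Raw plate signals without normalisation; calls rest on plate z-scores that were not deposited; ratio present for only 364 wells.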 The numbers tell different reagents against one gene apart. A plus sign joins genes that one reagent is predicted to hit. Reagent sequences are not shown. Not stated in the record: the dose of the treatment.
gene,reagent no.,"calcium entry signal, replicate 1 (fluorescence units)","calcium entry signal, replicate 2 (fluorescence units)","resting calcium signal, replicate 1 (fluorescence units)","resting calcium signal, replicate 2 (fluorescence units)",call
UQCR-14 (Ubiquinol-cytochrome c reductase 14 kDa subunit),1,3.96e7,3.18e7,2.02e7,1.61e7,inactive
CG34054,1,4.24e7,5.41e7,2.22e7,2.40e7,inactive
RapGAP1 (Rap GTPase activating protein 1),1,3.44e7,4.86e7,1.67e7,2.10e7,inactive
RapGAP1 (Rap GTPase activating protein 1),2,3.59e7,3.95e7,1.71e7,1.69e7,inactive
RapGAP1 (Rap GTPase activating protein 1),3,3.36e7,3.42e7,1.81e7,1.69e7,inactive
RapGAP1 (Rap GTPase activating protein 1),4,4.48e7,,2.44e7,,inactive
CG13217,1,1.51e7,3.26e7,8.57e6,1.41e7,inactive
CG15506,1,4.65e7,4.85e7,2.19e7,2.15e7,inactive
Tcs6 + PIG-P,1,4.23e7,4.29e7,2.28e7,2.36e7,inactive
Tcs6 + PIG-P,2,3.57e7,5.40e7,2.12e7,2.75e7,inactive
CG9014,1,4.83e7,2.97e7,2.12e7,1.39e7,inactive
CG13258,1,4.78e7,4.14e7,2.25e7,1.97e7,inactive
Chmp1 (Charged multivesicular body protein 1),1,3.04e7,4.56e7,1.41e7,3.13e7,inactive
CG13766,1,2.56e7,3.10e7,1.32e7,1.38e7,inactive
L2HGDH (L-2-hydroxyglutarate dehydrogenase),1,4.09e7,,1.81e7,,inactive
CG15200,1,3.53e7,4.08e7,1.76e7,1.87e7,inactive
rut (rutabaga),1,3.07e7,2.52e7,1.73e7,1.39e7,inactive
rut (rutabaga),2,4.77e7,2.97e7,2.16e7,1.27e7,inactive
CG13579,1,4.85e7,5.08e7,2.45e7,2.26e7,inactive
CG10205,1,2.61e7,2.52e7,1.44e7,1.43e7,inactive
h-cup (heineken-cup),1,3.50e7,4.17e7,1.53e7,1.83e7,inactive
Sxl (Sex lethal),1,3.87e7,3.79e7,2.02e7,1.66e7,inactive
Sxl (Sex lethal),2,3.53e7,4.61e7,1.78e7,2.05e7,inactive
Sxl (Sex lethal),3,3.61e7,3.40e7,1.93e7,1.63e7,inactive
CG33125,1,3.19e7,4.68e7,1.72e7,2.27e7,inactive
CG15021,1,1.80e7,2.28e7,9.54e6,1.22e7,inactive
CG42749,1,3.21e7,3.24e7,1.56e7,1.69e7,inactive
CG42749,2,3.40e7,3.04e7,1.64e7,1.58e7,inactive
"ash1 (absent, small, or homeotic discs 1)",1,2.04e7,3.09e7,1.03e7,2.08e7,inactive
CG3744,1,4.29e7,5.85e7,2.11e7,2.39e7,inactive
COX7AL2 (Cytochrome c oxidase subunit 7A-like 2),1,1.73e7,2.70e7,1.06e7,1.19e7,inactive
CG10669,1,3.24e7,4.87e7,1.71e7,2.26e7,inactive
lawc (leg arista wing complex),1,3.72e7,2.32e7,1.95e7,1.12e7,inactive
lawc (leg arista wing complex),2,5.22e7,3.33e7,2.49e7,1.48e7,inactive
CG31678,1,2.49e7,,1.42e7,,inactive
CG31678,2,4.92e7,6.37e7,2.45e7,2.60e7,inactive
CG10651,1,3.80e7,4.52e7,1.99e7,2.06e7,inactive
Gr66a (Gustatory receptor 66a),1,2.05e7,3.05e7,1.02e7,1.39e7,inactive
D19A,1,2.96e7,2.39e7,2.23e7,1.26e7,inactive
CRIF (CR6-interacting factor),1,3.06e7,4.46e7,1.37e7,1.79e7,inactive
sdt (stardust),1,4.38e7,3.81e7,2.24e7,1.89e7,inactive
sdt (stardust),2,4.20e7,3.33e7,2.00e7,1.64e7,inactive
sdt (stardust),3,3.14e7,4.10e7,1.67e7,1.86e7,inactive
sdt (stardust),4,2.87e7,3.96e7,1.39e7,1.89e7,inactive
sdt (stardust),5,3.08e7,4.45e7,1.57e7,2.13e7,inactive
sdt (stardust),6,2.52e7,2.85e7,1.30e7,1.64e7,inactive
sdt (stardust),7,1.81e7,2.63e7,1.16e7,1.47e7,inactive
sdt (stardust),8,3.46e7,3.38e7,1.86e7,1.74e7,inactive
sdt (stardust),9,3.67e7,3.24e7,1.70e7,1.42e7,inactive
CG9286,1,2.49e7,3.24e7,1.27e7,1.62e7,inactive
stai (stathmin),1,3.82e7,3.72e7,1.90e7,1.62e7,inactive
stai (stathmin),2,3.46e7,8.28e7,1.84e7,3.02e7,inactive
Idgf6 (Imaginal disc growth factor 6),1,3.96e7,4.51e7,1.81e7,2.12e7,inactive
CG15891 + CG15892,1,3.51e7,3.84e7,1.57e7,1.83e7,inactive
CG15891 + CG15892,2,2.53e7,3.84e7,1.27e7,1.70e7,inactive
achi (achintya),1,3.16e7,3.60e7,1.64e7,1.78e7,inactive
MICU3 (Mitochondrial calcium uptake 3),1,5.71e7,3.20e7,2.55e7,1.58e7,inactive
MICU3 (Mitochondrial calcium uptake 3),2,3.48e7,3.15e7,1.48e7,1.29e7,inactive

Limited to “calcium entry signal, replicate 1 (fluorescence units)” (9 entries from above):
CG13217 = 1.51e7
CG15506 = 4.65e7
Tcs6 + PIG-P #1 = 4.23e7
Tcs6 + PIG-P #2 = 3.57e7
CG9014 = 4.83e7
CG13258 = 4.78e7
Chmp1 (Charged multivesicular body protein 1) = 3.04e7
CG13766 = 2.56e7
L2HGDH (L-2-hydroxyglutarate dehydrogenase) = 4.09e7
